From patent US8980912B2, “Cyclic amine compound and acaricide” (Nippon Soda Co., Ltd., priority 2010, dated 2015)
Some results were stated once for a whole list of compounds, not compound by compound.

Tests used:
Type in all cases: in vivo
Panonychus citri = test: Efficacy test against Panonychus citri (adult mites on mandarin orange leaf, spray); conditions: sprayed, acaricide-resistant adult females, 3 days after spraying
Tetranychus urticae = test: Efficacy test against Tetranychus urticae (adult mites on kidney bean plant, spray); conditions: emulsion diluted to 125 ppm, sprayed; organic phosphorous-resistant adult females; 3 days after spraying; 25° C.
Procedure: Efficacy Test Against Tetranychus urticae
Seventeen organic phosphorous-resistant adult female Tetranychus urticae mites were inoculated onto the first leaves of a kidney bean plant planted in a No. 3 pot 7 to 10 days after germination. Next, an emulsion was prepared having the formula indicated in the aforementioned Preparation example 2. […] The kidney bean plant was then placed in a temperature-controlled room at a temperature of 25° C. and humidity of 65%. The adult insect mortality rates were investigated 3 days after spraying. The test was repeated twice.

[1] = tested on: Egg of Tetranychus urticae; test: Ovicidal activity test against egg of Tetranychus urticae; conditions: emulsion diluted to 125 ppm, sprayed on eggs on kidney bean leaf; 25° C.
Egg of Panonychus citri = test: Ovicidal activity test against egg of Panonychus citri; conditions: emulsion diluted to 125 ppm, sprayed on eggs on mandarin orange leaf; 25° C.
[2] = emulsion diluted to 125 ppm, 25° C.

Compound | insect mortality rate (Panonychus citri; [2]) | insect mortality rate (Tetranychus urticae) | egg mortality rate [1] | egg mortality rate (Egg of Panonychus citri) | insect mortality rate (Panonychus citri; emulsion diluted to 31 ppm)
CCOCc1cc(C(F)(F)F)ccc1OC1CC2CCCC(C1)N2Oc1ccc(C(F)(F)F)cn1 (stereo not drawn) [H-58] | ≥ 80% | ≥ 80% | – | – | –
CC(C)COc1cc(C(F)(F)F)ccc1OC1CC2CCCC(C1)N2Oc1ccc(C(F)(F)F)c(Cl)n1 (stereo not drawn) [H-75] | ≥ 80% | ≥ 80% | – | – | –
CC(C)OC(=O)c1cc(C(F)(F)F)ccc1ON1C2CCCC1CC(Oc1ccc(C(F)(F)F)cn1)C2 (stereo not drawn) [K-8] | ≥ 80% | ≥ 80% | – | – | –
FC(F)(F)c1ccc(ON2C3CCCC2CC(Oc2ccc(C(F)(F)F)cc2OCC2CC2)C3)nc1 (stereo not drawn) [H-2] | ≥ 80% | ≥ 80% | ≥ 80% | ≥ 80% | –
CC(C)CNc1cc(C(F)(F)F)ccc1OC1CC2CCCC(C1)N2Oc1ccc(C(F)(F)F)cn1 (stereo not drawn) [H-59] | – | ≥ 80% | – | – | ≥ 80%
FC(F)(F)c1ccc(ON2C3CCCC2CC(Oc2ccc(C(F)(F)F)cc2-c2cccnc2)C3)nc1 (stereo not drawn) [H-86] | – | ≥ 80% | – | – | –
CCC(C)COc1cc(C(F)(F)F)ccc1OC1CC2CCCC(C1)N2Oc1ccc(C(F)(F)F)cn1 (stereo not drawn) [H-70] | – | ≥ 80% | – | – | ≥ 80%
COCOc1cc(C(F)(F)F)ccc1OC1CC2CCCC(C1)N2Oc1ccc(C(F)(F)F)cn1 (stereo not drawn) [H-51] | ≥ 80% | ≥ 80% | – | – | –
CCCCOc1cc(C(F)(F)F)ccc1O[C@H]1C[C@H]2CCC[C@@H](C1)N2Oc1ccc(C(F)(F)F)cn1 [H-54, 3-endo-[2-butoxy-4-(trifluoromethyl)phenoxy]-9-[5-(trifluoromethyl)-2-pyridyloxy]-9-azabicyclo[3.3.1]nonane] | – | ≥ 80% | ≥ 80% | ≥ 80% | ≥ 80%
CCOc1cc(C(F)(F)F)ccc1OC1CC2CCCC(C1)N2Oc1ccc(C(F)(F)F)cn1 (stereo not drawn) [H-42] | ≥ 80% | ≥ 80% | – | – | –
CC(C)(C)COc1cc(C(F)(F)F)ccc1OC1CC2CCCC(C1)N2Oc1ccc(C(F)(F)F)cn1 (stereo not drawn) [H-66] | ≥ 80% | ≥ 80% | – | – | –
O=S(=O)(Oc1cc(C(F)(F)F)ccc1OC1CC2CCCC(C1)N2Oc1ccc(C(F)(F)F)cn1)C(F)(F)F (stereo not drawn) [H-84] | ≥ 80% | ≥ 80% | – | – | –
CC(C)COc1cc(C(F)(F)F)ccc1OC1CC2CCCC(C1)N2Oc1ccc(C(F)(F)F)cn1 (stereo not drawn) [H-1, 3-endo-[2-i-butoxy-4-(trifluoromethyl)phenoxy]-9-[5-(trifluoromethyl)-2-pyridyloxy]-9-azabicyclo[3.3.1]nonane] | ≥ 80% | ≥ 80% | ≥ 80% | ≥ 80% | –
CCCOc1cc(C(F)(F)F)ccc1OC1CC2CCCCC(C1)N2Oc1ccc(C(F)(F)F)cn1 (stereo not drawn) [H-90] | ≥ 80% | ≥ 80% | – | – | –
COC(C)COc1cc(C(F)(F)F)ccc1OC1CC2CCCC(C1)N2Oc1ccc(C(F)(F)F)cn1 (stereo not drawn) [H-81] | ≥ 80% | – | – | – | –
CCCSc1cc(C(F)(F)F)ccc1OC1CC2CCCC(C1)N2Oc1ccc(C(F)(F)F)cn1 (stereo not drawn) [H-87] | ≥ 80% | ≥ 80% | – | – | –
CC(C)OCc1cc(C(F)(F)F)ccc1OC1CC2CCCC(C1)N2Oc1ccc(C(F)(F)F)cn1 (stereo not drawn) [H-56] | – | ≥ 80% | ≥ 80% | ≥ 80% | ≥ 80%
CCCOc1nc(C(F)(F)F)ccc1OC1CC2CCCC(C1)N2Oc1ccc(C(F)(F)F)cn1 (stereo not drawn) [K-38] | ≥ 80% | ≥ 80% | – | – | –
COCc1cc(C(F)(F)F)ccc1OC1CC2CCCC(C1)N2Oc1ccc(C(F)(F)F)cn1 (stereo not drawn) [H-57] | ≥ 80% | ≥ 80% | – | – | –
CC(C)OC(=O)c1cc(C(F)(F)F)ccc1OC1CC2CCCC(C1)N2Oc1ccc(C(F)(F)F)cn1 (stereo not drawn) [H-73] | ≥ 80% | ≥ 80% | ≥ 80% | ≥ 80% | –
CCCOc1cc(Cl)ccc1OC1CC2CCCC(C1)N2Oc1ccc(C(F)(F)F)cn1 (stereo not drawn) [H-89] | ≥ 80% | ≥ 80% | – | – | –
COC(C)Oc1cc(C(F)(F)F)ccc1OC1CC2CCCC(C1)N2Oc1ccc(C(F)(F)F)cn1 (stereo not drawn) [H-72] | ≥ 80% | ≥ 80% | – | – | –
FC(F)(F)c1ccc(ON2C3CCCC2CC(Oc2ccc(C(F)(F)F)cc2-c2ccccc2)C3)nc1 (stereo not drawn) [H-85, 3-endo-[2-phenyl-4-(trifluoromethyl)phenoxy]-9-[5-(trifluoromethyl)-2-pyridyloxy]-9-azabicyclo[3.3.1]nonane] | ≥ 80% | ≥ 80% | – | – | –

Compound | insect mortality rate (Panonychus citri; [2]) | insect mortality rate (Tetranychus urticae) | egg mortality rate [1] | egg mortality rate (Egg of Panonychus citri) | insect mortality rate (Panonychus citri; emulsion diluted to 31 ppm)
N#CCOc1cc(C(F)(F)F)ccc1OC1CC2CCCC(C1)N2Oc1ccc(C(F)(F)F)cn1 (stereo not drawn) [H-71] | – | ≥ 80% | – | – | –
FC(F)(F)COc1cc(C(F)(F)F)ccc1OC1CC2CCCC(C1)N2Oc1ccc(C(F)(F)F)cn1 (stereo not drawn) [H-63] | – | ≥ 80% | – | – | ≥ 80%
CCOC(=O)c1cc(C(F)(F)F)ccc1OC1CC2CCCC(C1)N2Oc1ccc(C(F)(F)F)cn1 (stereo not drawn) [H-74] | ≥ 80% | ≥ 80% | – | – | –
CC(C)COc1cc(C(F)(F)F)ccc1OC1CC2COCC(C1)N2Oc1ncc(C(F)(F)F)cn1 (stereo not drawn) [H-29] | ≥ 80% | ≥ 80% | ≥ 80% | ≥ 80% | –
FC(F)(F)c1ccc(ON2C3CCCC2CC(Oc2ccc(C(F)(F)F)cc2OCC=C(Cl)Cl)C3)nc1 (stereo not drawn) [H-67] | – | ≥ 80% | – | – | –
CC(C)=CCOc1cc(C(F)(F)F)ccc1OC1CC2CCCC(C1)N2Oc1ccc(C(F)(F)F)cn1 (stereo not drawn) [H-65] | – | ≥ 80% | – | – | –
CCCCn1nc(C(F)(F)F)cc1OC1CC2CCCC(C1)N2Oc1ccc(C(F)(F)F)cn1 (stereo not drawn) [K-39] | ≥ 80% | ≥ 80% | – | – | –
CC(C)COc1cc(C(F)(F)F)ccc1OC1CC2CCCC(C1)N2Oc1ccc(C#N)nn1 (stereo not drawn) [H-52] | – | ≥ 80% | – | – | –
CCC(C)Oc1cc(C(F)(F)F)ccc1OC1CC2CCCC(C1)N2Oc1ccc(C(F)(F)F)cn1 (stereo not drawn) [H-61] | – | ≥ 80% | – | – | ≥ 80%
C=C(C)COc1cc(C(F)(F)F)ccc1OC1CC2CCCC(C1)N2Oc1ccc(C(F)(F)F)cn1 (stereo not drawn) [H-69] | ≥ 80% | – | – | – | –
CC(C)COc1cc(C(F)(F)F)ccc1OC1CC2CCCC(C1)N2Oc1ccc(C#N)cn1 (stereo not drawn) [H-41] | ≥ 80% | ≥ 80% | – | – | –
CC(C)Oc1cc(C(F)(F)F)ccc1OC1CC2CCCC(C1)N2Oc1ccc(C(F)(F)F)cn1 (stereo not drawn) [H-60] | – | ≥ 80% | – | – | ≥ 80%
CC(C)OC(=O)Oc1cc(C(F)(F)F)ccc1OC1CC2CCCC(C1)N2Oc1ccc(C(F)(F)F)cn1 (stereo not drawn) [H-62] | ≥ 80% | ≥ 80% | – | – | –
CC(C)COc1cc(C(F)(F)F)ccc1OC1CC2CCCC(C1)N2Oc1ccc(C(F)(F)F)nn1 (stereo not drawn) [H-5] | ≥ 80% | ≥ 80% | – | – | –
CCCOc1cc(C(F)(F)F)ccc1OC1CC2CCCC(C1)N2Oc1ccc(C(F)(F)F)cn1 (stereo not drawn) [H-43] | ≥ 80% | ≥ 80% | ≥ 80% | ≥ 80% | –
FC(F)(F)c1ccc(ON2C3CCCC2CC(Oc2ccc(C(F)(F)F)cc2OC2CCCC2)C3)nc1 (stereo not drawn) [H-82] | ≥ 80% | ≥ 80% | – | – | –
CC(O)COc1cc(C(F)(F)F)ccc1OC1CC2CCCC(C1)N2Oc1ccc(C(F)(F)F)cn1 (stereo not drawn) [H-80] | – | ≥ 80% | – | – | ≥ 80%
CC(C)NC(=O)Oc1cc(C(F)(F)F)ccc1OC1CC2CCCC(C1)N2Oc1ccc(C(F)(F)F)cn1 (stereo not drawn) [H-83] | ≥ 80% | ≥ 80% | – | – | –
C#CCOc1cc(C(F)(F)F)ccc1OC1CC2CCCC(C1)N2Oc1ccc(C(F)(F)F)cn1 (stereo not drawn) [H-68] | – | ≥ 80% | – | – | ≥ 80%
CC(C)OC(=O)c1cc(C(F)(F)F)ccc1ON1C2COCC1CC(Oc1ccc(C(F)(F)F)cn1)C2 (stereo not drawn) [K-12, 3-oxa-7-endo-[5-(trifluoromethyl)-2-pyridyloxy]-9-[2-isopropoxycarbonyl-4-(trifluoromethyl)phenoxy]-9-azabicyclo[3.3.1]nonane] | ≥ 80% | ≥ 80% | – | – | –
CC(=O)COc1cc(C(F)(F)F)ccc1OC1CC2CCCC(C1)N2Oc1ccc(C(F)(F)F)cn1 (stereo not drawn) [H-79] | – | ≥ 80% | – | – | –
C=CCOc1cc(C(F)(F)F)ccc1OC1CC2CCCC(C1)N2Oc1ccc(C(F)(F)F)cn1 (stereo not drawn) [H-64] | ≥ 80% | ≥ 80% | – | – | –
